Measurements as given in patent publication US7115576B2, “Water-soluble antibiotic comprising an amino sugar, in the form of a polysaccharide conjugate” (Fresenius Kabi Deutschland GmbH, priority 2001, dated 2006).

Test system: erythrocytes
Experiment: Haemolysis comparison test (extinction of supernatant at 576 nm)
Type: cell-based, human
Conditions: solution without erythrocyte suspension
Procedure: Of this stock solution, three dilutions were produced in accordance with Table 2 and their haemolytic action also investigated.
Production of the erythrocyte suspension: freshly taken human blood was diluted with approximately 5 times the volume of sterile 0.9% NaCl solution (batch designation: 9055A64 produced by the company Braun Melsungen) and centrifuged for 5 minutes at a relative centrifugal acceleration of 2000. The supernatant solution was then drawn off and the sedimented erythrocytes treated twice more in the same way.
The erythrocytes thus washed were counted in a Neubauer counting chamber and—where necessary—diluted again with sterile 0.9% NaCl solution to a final concentration of approx. 5·10^8 erythrocytes per ml. This suspension is according to DIN standard usable at room temperature for up to 6 hours.
Haemolysis comparison test: 5 ml of the solution to be tested was mixed with 1 ml of the above erythrocyte suspension, transferred to a cleaned centrifuge tube and incubated in a water bath at 37±1° C. for 20 minutes. Centrifuging was then performed for 5 minutes at a relative centrifugal acceleration of 2000.
The extinction of the supernatant liquid was measured. 5 ml of the 0.9% NaCl solution and the 5% glucose solution, which were mixed with 1 ml of the erythrocyte suspension, also incubated at 37±1° C. for 20 minutes and then centrifuged as above, served as negative controls.
For the test for haemolysis, the extinctions of the respective supernatants were measured in a photometer against the negative controls at a wavelength of 576 nm using a cuvette 10 mm in thickness. Owing to the differing stainings of the solutions, the extinction was also measured for the purpose of comparing the solutions without erythrocyte suspension.

In the case of “Amphotericin B-HES Conjugate [Ampho HES]”, the “Extinction 576 nm without erythrocytes” value (amphotericin B 0.12 mg/ml in the solution) is reported as 0.033, the “Extinction 576 nm without erythrocytes” value (amphotericin B 0.24 mg/ml in the solution) is reported as 0.076 and the “Extinction 576 nm without erythrocytes” value (amphotericin B 0.48 mg/ml in the solution) is reported as 0.151. For the same substance, the “Extinction 576 nm without erythrocytes” value (amphotericin B 1.00 mg/ml in the solution (stock solution)) was 0.288.
